Test results reported in patent US8163909B2, “Substituted hydroxyethyl amine compounds as beta-secretase modulators and methods of use” (Amgen Inc., priority 2007, dated 2012).

Amino acid sequences for entries named in this document (tags omitted). Residues count along the entry.
UniProt P56817, 46-501 limits assumed: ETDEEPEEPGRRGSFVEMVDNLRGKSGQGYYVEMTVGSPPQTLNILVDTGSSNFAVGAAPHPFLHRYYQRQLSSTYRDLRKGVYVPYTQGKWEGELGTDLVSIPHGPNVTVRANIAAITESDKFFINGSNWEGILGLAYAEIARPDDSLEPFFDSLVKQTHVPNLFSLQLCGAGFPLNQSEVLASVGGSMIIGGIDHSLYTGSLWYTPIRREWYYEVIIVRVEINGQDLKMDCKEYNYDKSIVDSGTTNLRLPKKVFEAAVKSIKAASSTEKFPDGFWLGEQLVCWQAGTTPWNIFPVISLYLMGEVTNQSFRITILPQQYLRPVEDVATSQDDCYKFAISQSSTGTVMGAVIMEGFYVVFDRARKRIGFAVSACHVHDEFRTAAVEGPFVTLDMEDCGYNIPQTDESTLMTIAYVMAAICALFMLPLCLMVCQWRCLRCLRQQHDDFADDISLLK
UniProt P08684, 2-503 limits assumed: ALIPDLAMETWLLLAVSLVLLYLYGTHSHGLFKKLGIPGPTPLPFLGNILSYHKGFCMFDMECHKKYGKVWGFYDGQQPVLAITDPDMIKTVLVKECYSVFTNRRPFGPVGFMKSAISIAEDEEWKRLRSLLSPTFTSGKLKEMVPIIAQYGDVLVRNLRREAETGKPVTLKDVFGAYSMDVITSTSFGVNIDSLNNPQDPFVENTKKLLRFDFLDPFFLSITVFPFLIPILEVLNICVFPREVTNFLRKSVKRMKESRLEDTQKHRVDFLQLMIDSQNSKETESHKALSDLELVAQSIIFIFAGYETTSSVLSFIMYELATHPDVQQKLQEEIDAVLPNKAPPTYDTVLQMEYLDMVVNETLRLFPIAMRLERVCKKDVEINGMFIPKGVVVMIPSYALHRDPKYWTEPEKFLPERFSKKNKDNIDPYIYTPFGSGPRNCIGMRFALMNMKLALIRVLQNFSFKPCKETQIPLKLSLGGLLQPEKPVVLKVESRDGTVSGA
UniProt P10635, whole entry: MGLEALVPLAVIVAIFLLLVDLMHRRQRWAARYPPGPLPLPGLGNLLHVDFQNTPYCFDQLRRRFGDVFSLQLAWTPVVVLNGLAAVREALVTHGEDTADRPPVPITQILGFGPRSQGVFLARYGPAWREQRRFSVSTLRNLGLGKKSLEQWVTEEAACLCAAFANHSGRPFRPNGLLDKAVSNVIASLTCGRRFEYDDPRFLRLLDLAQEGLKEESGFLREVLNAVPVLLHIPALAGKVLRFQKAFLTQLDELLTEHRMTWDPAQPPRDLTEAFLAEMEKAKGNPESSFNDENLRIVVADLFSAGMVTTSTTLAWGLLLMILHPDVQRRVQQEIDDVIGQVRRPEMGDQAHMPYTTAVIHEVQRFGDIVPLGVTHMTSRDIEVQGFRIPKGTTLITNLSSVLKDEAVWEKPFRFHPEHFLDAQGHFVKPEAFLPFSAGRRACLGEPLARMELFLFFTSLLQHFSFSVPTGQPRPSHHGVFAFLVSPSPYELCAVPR

Key:
[1] = system: Aβ40 in conditioned medium of cells stably expressing Amyloid Precursor Protein (APP); assay: In vitro BACE cell-based assay (Aβ40 in conditioned medium, sandwich ELISA);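 further: compounds added as a dilution series, secreted peptide quantified by europium time-resolved fluorescence readout, potency fitted from percent of control versus compound concentration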
[2] = biological target: Beta Secretase enzyme (BACE) (Homo sapiens, UniProt P56817); assay: In vitro enzymatic BACE FRET (fluorescence resonance energy transfer) assay; type: biochemical;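 further: fluorescence read after 1 h with 50 nM quenched peptide substrate spanning the BACE cleavage site, in pH 4.2 acetate buffer containing 10% DMSO and nonionic detergent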
CYP3A = CYP3A (Homo sapiens, UniProt P08684); settings: read-out: 3A4 IC50;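 further: inhibition of CYP3A-mediated 1-hydroxymidazolam formation after 10 min incubation with NADPH, quantified by HPLC MS relative to metabolite produced without test compound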
CYP2D6 = CYP2D6 (Homo sapiens, UniProt P10635); assay: CYP2D6 inhibition assay (bufuralol, pooled human liver microsomes); type: in vitro ADME; settings: read-out: 2D6 IC50
[3] = Microsomal stability assay, rat liver microsomes; type: in vitro ADME;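 further: rat liver microsomes (0.25 mg/mL) with about 1 µM compound plus 1 mM NADPH, pH 7.4, 37 °C for 30 min, parent left measured by LC-MS/MS against 0 min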
[4] = Microsomal stability assay, human liver microsomes; type: in vitro ADME;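 further: pooled human liver microsomes at 0.25 mg/mL with 1 µM compound and NADPH at 37 °C, pH 7.4, for 30 min, unchanged parent quantified by LC-MS/MS against the 0 min sample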
[5] = read-out: HEK cell assay (IC50), HEK cells, cell-based assay
[6] = read-out: BACE1 FRET assay (IC50), BACE enzyme FRET assay

With `CO[C@H](C)C(=O)N[C@@H](Cc1cc(F)c2c(c1)OCO2)C(O)CN[C@H]1CC2(CCC2)Oc2ncc(CC(C)(C)C)cc21` (some centres unmarked) the pIC50 [1, 5] was 7.91 and the pIC50 [2, 6] was 7.82.
With `COCC(=O)N[C@@H](Cc1ccc2c(c1)OCO2)[C@H](O)CN[C@H]1CC2(CCC2)Oc2ncc(C(F)(F)C(C)(C)C)cc21` the pIC50 (CYP3A; CYP3A4 inhibition) was 6.70, the pIC50 (CYP3A; CYP enzyme inhibition) was 7.00 and the pIC50 (CYP2D6; CYP2D6 inhibition) was 5.85. For the same molecule, the pIC50 (CYP2D6; CYP enzyme inhibition) was 5.49, the “RLM” value ([3]; rat liver microsomal data) was 187 µL/min/mg and the “RLM” value ([3]; rat liver microsomes) was 123 µL/min/mg. The pIC50 ([1]; read-out: HEK cell assay, HEK cell-based assay IC50) was 7.17, the pIC50 ([1]; read-out: HEK cell assay, HEK cells) was 6.20 and the pIC50 ([2]; read-out: BACE1 FRET assay, BACE enzyme assay) was 6.55. The pIC50 ([2]; read-out: BACE1 FRET assay, BACE enzyme assay IC50) was 8.22, the “HLM” value ([4]; human liver microsomal data) was 40 µL/min/mg and the “HLM” value ([4]; human liver microsomes) was 158 µL/min/mg.
`CC(=O)N[C@@H](Cc1ccc(F)cc1)[C@H](O)CN[C@H]1CC2(CCOC2)Oc2c(F)cc(CC(C)(C)C)cc21` (some centres unmarked) showed a pIC50 [1, 5] of 7.34 and a pIC50 ([2]; read-out: BACE1 FRET assay (IC50), BACE enzyme assay) of 7.71.
Work on `COCC(=O)N[C@@H](Cc1ccc(F)c(-c2cncs2)c1)[C@H](O)CN[C@H]1CC2(CCC2)Oc2ncc(CC(C)(C)C)cc21` [compound 684, N-((1S,2R)-3-(((4′S)-6′-(2,2-dimethylpropyl)-3′,4′-dihydrospiro[cyclobutane-1,2′-pyrano[2,3-b]pyridin]-4′-yl)amino)-1-(4-fluoro-3-(1,3-thiazol-5-yl)benzyl)-2-hydroxypropyl)-2-methoxyacetamide] yielded a pIC50 (CYP2D6; CYP2D6 inhibition) of 6.70, an RLM ([3]; rat liver microsomes) of 74 µL/min/mg and a pIC50 ([1]; read-out: HEK cell assay (IC50), HEK cells) of 7.60. It also gave a pIC50 ([2]; read-out: BACE1 FRET assay (IC50)) of 8.40 and an HLM ([4]; human liver microsomes) of 78 µL/min/mg.
`COC(C)C(=O)N[C@@H](Cc1cccc(F)c1)[C@H](O)CN[C@H]1CC2(CCC2)Oc2ncc(CCC(F)(F)F)cc21` (some centres unmarked) gave a pIC50 [1, 5] of 6.55 and a pIC50 [2, 6] of 6.90.
Molecule `COCC(=O)N[C@@H](Cc1cc(F)c2c(c1)OCO2)C(O)CN[C@H]1CC2(CCC2)Oc2ncc(CC(C)(C)C)cc21` (some centres unmarked) has a pIC50 [1, 5] of 8.15 and a pIC50 [2, 6] of 8.04.
Work on `CC(=O)N[C@@H](Cc1cc(F)c2c(c1)OCO2)C(O)CN[C@H]1CC2(CCC2)Oc2ncc(CC(C)(C)C)cc21` (some centres unmarked) yielded a pIC50 ([1]; read-out: HEK cell assay (IC50), HEK cells, cell-based assay, tested form: mixture of the (2R) and (2S) carbinol ep) of 8.07 and a pIC50 ([2]; read-out: BACE1 FRET assay (IC50), BACE enzyme FRET assay, tested form: mixture of the (2R) and (2S) carbinol ep) of 8.11.
Molecule `CC(=O)N[C@@H](Cc1cccc(F)c1)[C@H](O)CN[C@H]1CC2(CCC2)Oc2ncc(C(F)[C@@H](C)C(F)(F)F)cc21` (some centres unmarked) has a pIC50 ([1]; read-out: HEK cell assay, Table 1, HEK cells) of 7.20 and a pIC50 ([2]; read-out: BACE1 FRET assay, Table 1) of 7.86.

pIC50: −log10 of the molar value. Like-named read-outs stand apart in the source and are kept apart here. The match of structure and compound is tentative.
